No constants are given. Whether binding was seen depends on the method and setting. For some assays here: Where a sequence is shown, tags or fusion partners need not be part of it.
Tests used:
[1] = target: T1, NdhM bait construct in pGBKT7 (Gal4 DNA binding domain) (Synechocystis sp. PCC 6803) (UniProt P74338); assay: two-hybrid; NdhM in pGBKT7 (Gal4 DNA binding domain) as bait, Ndh subunits in pGADT7 (Gal4 activation domain) as prey; S. cerevisiae AH109; growth on medium lacking Trp, Leu, His and Ade, 30 °C, 6 days
T1 sequence: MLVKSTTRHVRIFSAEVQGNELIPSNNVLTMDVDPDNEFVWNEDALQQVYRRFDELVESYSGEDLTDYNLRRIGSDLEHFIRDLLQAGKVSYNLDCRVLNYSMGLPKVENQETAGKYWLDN

[2] = target: T2, GST-NdhM (Synechocystis sp. PCC 6803) (UniProt P74338); assay: pull-down; GST-NdhM on glutathione-Sepharose 4B resin as bait, His-tagged Ndh subunits as prey; 2 h at 4 °C in 20 mM Tris-HCl pH 7.5, 100 mM NaCl, 0.1 mM EDTA, 0.2% Triton, 10% glycerol; washed five times with 300 mM NaCl, 0.5% Nonidet P-40; eluates blotted with anti-His antibody; both purified
T2 sequence: T1 sequence

Substance	binding [1]	binding [2]
NdhS prey construct in pGADT7 (Gal4 activation domain) (Synechocystis sp. PCC 6803)	no binding	
NdhS-His6 (Synechocystis sp. PCC 6803)		no binding
